## Results of single-concentration screens

The chains behind the UniProt entries cited, without tags or fusion partners. Residues count along the entry.
UniProt P9WFT3, whole entry: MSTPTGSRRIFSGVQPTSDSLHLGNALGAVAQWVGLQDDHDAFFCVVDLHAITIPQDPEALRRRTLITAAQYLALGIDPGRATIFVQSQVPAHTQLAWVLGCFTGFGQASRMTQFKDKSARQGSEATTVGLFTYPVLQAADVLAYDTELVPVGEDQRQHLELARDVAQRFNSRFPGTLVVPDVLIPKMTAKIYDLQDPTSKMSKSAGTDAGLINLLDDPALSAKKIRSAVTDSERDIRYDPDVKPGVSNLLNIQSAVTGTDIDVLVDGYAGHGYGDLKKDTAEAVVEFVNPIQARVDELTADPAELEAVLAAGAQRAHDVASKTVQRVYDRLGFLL
UniProt A4I591, 1-473: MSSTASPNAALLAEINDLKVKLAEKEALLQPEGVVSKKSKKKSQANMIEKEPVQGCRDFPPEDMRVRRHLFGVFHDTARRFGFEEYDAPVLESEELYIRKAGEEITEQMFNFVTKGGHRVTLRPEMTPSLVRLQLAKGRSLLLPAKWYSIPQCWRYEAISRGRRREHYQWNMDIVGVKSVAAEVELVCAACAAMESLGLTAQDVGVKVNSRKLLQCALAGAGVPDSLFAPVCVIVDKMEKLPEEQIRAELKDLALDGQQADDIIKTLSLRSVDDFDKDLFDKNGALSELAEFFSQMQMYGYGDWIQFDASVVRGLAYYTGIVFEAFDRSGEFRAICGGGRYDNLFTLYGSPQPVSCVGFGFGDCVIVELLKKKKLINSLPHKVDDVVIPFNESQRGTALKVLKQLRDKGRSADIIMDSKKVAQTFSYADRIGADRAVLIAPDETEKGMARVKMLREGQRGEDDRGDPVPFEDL

MtTrpRS: 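Enzyme assay of tryptophanyl-tRNA synthetase; the read-out is not stated. Target: Tryptophan-tRNA ligase, Mycobacterium tuberculosis (UniProt P9WFT3). Tested at 10 µM. Direction is not recorded; retested compounds ran higher, which suggests that high means inhibition. Size under these conditions: about 65,000 compounds, about 64 of them at 50% or above in at least one test.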
LiHisRS: 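Histidine-tRNA ligase, Leishmania infantum (UniProt A4I591). Enzyme assay of histidyl-tRNA synthetase; the read-out is not stated. Concentration: 30 µM. Direction is inferred from retests: higher values go with stronger inhibition. The assay is labelled LdHisRS but filed under L. infantum. About 69,000 compounds were tested under these conditions; 0.6% (about 410) showed 50% or more at least once.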

Results are given as percent effect. The record does not define 0% and 100%; most values in the screen are far below 50% and negative numbers occur (in some assays of this library far below -100). This is an unselected part of the compounds tested.

* O=C(c1ccc2c(c1)CCC2)N1CCN(c2ccc(Cl)cn2)CC1 : MtTrpRS: -1.341%; LiHisRS: 11.86%
* Cc1noc(CS(=O)(=O)C(C)C(=O)N(C)c2ccccc2)n1 (configuration not stated) : MtTrpRS: 3.213%; LiHisRS: 27.16%
* Cc1c(C)n(-c2ccccn2)c2nc3c(c(N)c12)CCCCC3 : MtTrpRS: -2.031%; LiHisRS: 7.895%
* O=C(c1ccc(F)cc1Cl)N1CCn2c(nnc2C(F)(F)F)C1 : MtTrpRS: -3.505%; LiHisRS: -1.299%
* COc1cc(C(=O)N(CCC#N)Cc2ccccn2)ccc1C : MtTrpRS: 1.665%; LiHisRS: 15.18%
* COCC(=O)N1CCC(c2cc(-c3ccc(C)cc3)n[nH]2)C1 (configuration not stated) : MtTrpRS: 1.737%; LiHisRS: 12.77%
* Cn1ccnc1CN1CCC(F)(F)C2(CCN(c3cccnc3)C2)C1 (configuration not stated) : LiHisRS: 17.27%
* O=C(NCc1cccc(C(F)(F)F)c1)C(c1cccnc1)N1CCCC1 (configuration not stated) : MtTrpRS: 0.7346%; LiHisRS: 14.52%
* Cc1nn(C)c(Cl)c1C1CCCN1C(=O)c1ccc[nH]1 (configuration not stated) : MtTrpRS: 26.36%; LiHisRS: 7.018%
* CN1C(=O)CC(c2ccccc2)C12CCN(CC1CC1)CC2 (configuration not stated) : MtTrpRS: -0.2907%; LiHisRS: 13.46%
* O=C(C1CCCc2[nH]ncc21)N1CCCCCC1 (configuration not stated) : MtTrpRS: -2.682%; LiHisRS: 15.09%
* Fc1cccc(CNCC2OCCc3cn(CC4CCOCC4)nc32)c1 (configuration not stated) : MtTrpRS: 1.235%; LiHisRS: 14.71%
* Cc1ccc2c(c1)c(CNC(=O)C1CCCN(CC(N)=O)C1)nn2C (configuration not stated) : MtTrpRS: -4.262%; LiHisRS: 5.263%
* COc1ccc(Cl)cc1S(=O)(=O)N(C)CC(=O)Nc1cccnc1 : MtTrpRS: -0.3661%; LiHisRS: 0%
* CCCn1cnnc1CNC(=O)CC1C(=O)NCCN1CC=C(C)C (configuration not stated) : MtTrpRS: 20.46%; LiHisRS: 13.33%
* Cc1ccc(N(CC(=O)N2CCCCC2)C(=O)C2COCCO2)cc1 (configuration not stated) : MtTrpRS: -5.957%; LiHisRS: 18.57%
* CCN(CC)S(=O)(=O)N(CC)Cc1ccc2c(c1)OCCO2 : MtTrpRS: -5.656%; LiHisRS: 15.38%
* CC(C)CNc1nnc(SC(C(=O)NCc2cccnc2)C(C)C)s1 (configuration not stated) : MtTrpRS: 3.95%; LiHisRS: 12.24%
* O=C(NC[C@@H]1CCCO1)c1cccnc1N1CCCC1c1ccccn1 (some centres not stated) : LiHisRS: 13.86%
* CN1C(=O)[C@H]2CC[C@@H]1CN(C(=O)c1sccc1S(N)(=O)=O)C2 : MtTrpRS: -0.5045%; LiHisRS: 29.58%
* Cn1cc(C[C@H]2[C@@H](O)CCN2C(=O)c2ccc[nH]2)cn1 : MtTrpRS: -3.108%; LiHisRS: 19%
* O=C(C1CCOCC1)N1C[C@@H]2OCCN(CCN3CCCC3)[C@@H]2C1 : MtTrpRS: -3.779%; LiHisRS: 17.09%
* COc1ccccc1CNC(=O)CNCCn1cc(C)cn1 : MtTrpRS: -7.484%; LiHisRS: 20.18%
* CC(C)CC(CCO)CNC(=O)N1CCC1(C)C (configuration not stated) : MtTrpRS: -2.812%; LiHisRS: -3.175%
* CC(NC(=O)CCCc1nc(C(C)(C)C)no1)c1ccccn1 (configuration not stated) : MtTrpRS: 3.076%; LiHisRS: 14.29%
* O=S(=O)(c1ccc(F)cc1)N1CCCC(c2nccs2)C1 (configuration not stated) : MtTrpRS: -1.101%; LiHisRS: 5.263%
* Cc1cccc(N2CCN(C(=O)NC(C)c3nncn3C)CC2)c1C (configuration not stated) : MtTrpRS: -6.973%; LiHisRS: 13.79%
* O=C1CCCN1Cc1ncn2c1CN(C(=O)c1cccc(F)c1)CCC2 : MtTrpRS: 2.515%; LiHisRS: 18.87%
* COc1cccc(CC(=O)N2CCCC2c2nc(C)c(C)c(O)n2)c1 (configuration not stated) : MtTrpRS: -1.681%; LiHisRS: 5.263%
* CCN(C(c1cccnc1)c1cc(C)cc(C)c1)S(C)(=O)=O (configuration not stated) : MtTrpRS: 2.437%; LiHisRS: 1.587%
* COc1cc(N2CCC[C@]3(C(=O)O)CN(C(C)C)C[C@@H]3C2)ncn1 : MtTrpRS: 4.223%; LiHisRS: 9.735%
* CCN(Cc1noc(CC(C)C)n1)Cc1cccc(F)c1O : MtTrpRS: 5.307%; LiHisRS: 0%
* O=C(c1cc(-n2cccn2)ccn1)N1CCOc2ccc(F)cc21 : MtTrpRS: 4.238%; LiHisRS: 3.03%
* Cn1cc(CN2CC[C@H]3O[C@H](C(=O)NC4CC4)CC[C@H]32)c2ccccc21 : MtTrpRS: 0.541%; LiHisRS: 18.42%
* CCn1c(CN(C)C)nnc1C1CCN(Cc2ccc(Cl)cc2F)CC1 : MtTrpRS: -3.551%; LiHisRS: 12%
* Cc1ncsc1CCC(=O)N1CCn2cccc2C1c1cccnc1 (configuration not stated) : MtTrpRS: 2.312%; LiHisRS: 19.05%
* Cc1cc(C)c(CNC(=O)C(C)Oc2cccc(C#N)c2)c(=O)[nH]1 (configuration not stated) : MtTrpRS: 0.3268%; LiHisRS: 10.26%

For reference, 3 entries once more:

With COc1cccc(CC(=O)N2CCCC2c2nc(C)c(C)c(O)n2)c1 (configuration not stated) the screen gave MtTrpRS: -1.681%; LiHisRS: 5.263%.
With O=C1CCCN1Cc1ncn2c1CN(C(=O)c1cccc(F)c1)CCC2 the screen gave MtTrpRS: 2.515%; LiHisRS: 18.87%.
With O=C(NC[C@@H]1CCCO1)c1cccnc1N1CCCC1c1ccccn1 (some centres not stated) the screen gave LiHisRS: 13.86%.

From ChEMBL document CHEMBL3988442, “University of Dundee, Small-Polar-MMV Screening Library” (2021).